# From the supplement of paper PMC11732987, “Enantioselective OTUD7B fragment discovery through chemoproteomics screening and high-throughput optimisation” (Communications Chemistry, 2025)
# This is one part of the list. The data scatter; read single values as rough.
# Tests used:
# [1] = compound: ClCC(=O)N[C@@H]1CCCc2ccccc12; test: log2 mean competition ratio of IA-DTB cysteine labelling (DMSO/compound) (log2 ratio); higher = stronger cysteine engagement by compound; details: treatment time: 4 h, cell line lysate: HEK293T
# Experimental: (§1)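 IA-DTB competitive cysteine chemoproteomics in HEK293T RIPA lysate. Lysates were treated with compound 29 or 30 at 50 or 200 µM for 4 h, then IA-DTB (500 µM, 1 h), trypsin-digested, NeutrAvidin-enriched and analysed by diaPASEF. Competition ratio = intensity DMSO / intensity compound (n=4 treated, n=64 DMSO); binding: mean log2 CR ≥ 1 and p ≤ 0.05 plus QC filters. Target is the cysteine site.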
# [2] = compound: ClCC(=O)N[C@H]1CCCc2ccccc12; test: as above; details: treatment time: 4 h, cell line lysate: HEK293T
# Experimental: as §1
Target,log2 mean competition ratio ([1]; 50 µM),log2 mean competition ratio ([1]; 200 µM),log2 mean competition ratio ([2]; 50 µM),log2 mean competition ratio ([2]; 200 µM)
HLTF C360 (UniProt Q14527),0.14,0.0447,–,–
HINT1 C84 (UniProt P49773),-0.183,-0.17,–,–
HELB C608 (UniProt Q8NG08),-0.0385,-0.0992,–,–
HEATR6 C38 (UniProt Q6AI08),0.25,0.274,–,–
HDHD5 C109 (UniProt Q9BXW7),-0.0167,-0.258,–,–
HECTD1 C2275 (UniProt Q9ULT8),-0.116,-0.211,–,–
HOXC10 C47,–,0.176,–,–
HEATR3 C464 (UniProt Q7Z4Q2),-0.0623,0.141,–,–
HMCES C18 (UniProt Q96FZ2),-0.0148,-0.15,–,–
HAUS6 C699 (UniProt Q7Z4H7),-0.0282,0.0833,–,–
GTF2I C80 (UniProt P78347),-0.244,-0.257,–,–
HDAC2 C417 (UniProt Q92769),0.299,-0.547,–,–
HECA C434 (UniProt Q9UBI9),-0.183,0.0661,–,–
HEATR3 C446 (UniProt Q7Z4Q2),0.41,0.278,–,–
GXYLT1 C123 (UniProt Q4G148),0.415,0.367,–,–
HERC5 C220 (UniProt Q9UII4),-0.193,-0.0629,–,–
HARS2 C225 (UniProt P49590),-0.238,0.159,–,–
HEATR5A C623 (UniProt Q86XA9),-0.135,0.00554,–,–
HDAC1 C408 (UniProt Q13547),-0.0126,0.137,–,–
GTF3C4 C788 (UniProt Q9UKN8),0.561,0.293,–,–
HBS1L C504 (UniProt Q9Y450),0.134,-0.129,–,–
HIP1 C220 (UniProt O00291),0.175,0.885,–,–
HLA-C C125,-0.139,0.198,–,–
HASPIN C300 (UniProt Q8TF76),-0.105,0.118,–,–
HECTD1 C1811 (UniProt Q9ULT8),-0.469,0.381,–,–

Target,log2 mean competition ratio ([1]; 50 µM),log2 mean competition ratio ([1]; 200 µM),log2 mean competition ratio ([2]; 50 µM),log2 mean competition ratio ([2]; 200 µM)
HEATR5A C1635 (UniProt Q86XA9),-0.301,-0.12,–,–
HECTD1 C1855 (UniProt Q9ULT8),0.552,0.198,–,–
HCFC1 C227 (UniProt P51610),0.298,0.209,–,–
HK2 C368 (UniProt P52789),-0.207,0.158,–,–
HNRNPUL2 C538 (UniProt Q1KMD3),0.0306,0.189,–,–
HLA-E C185,-0.0327,0.301,–,–
HOMER1 C234 (UniProt Q86YM7),-0.172,-0.37,–,–
GSTM3 C208 (UniProt P21266),0.0925,0.00325,–,–
HECTD1 C1389 (UniProt Q9ULT8),0.0993,-0.312,–,–
HK2 C517 (UniProt P52789),-0.248,-0.148,–,–
HOXB8 C215,-0.211,-0.0939,–,–
HDLBP C636,-0.103,0.144,–,–
HNRNPL C452,-0.156,-0.23,0.7,0.0178
HIP1R C105 (UniProt O75146),0.132,0.145,0.144,0.0559
HECTD4 C3916,0.0326,-0.13,–,–
GUK1 C98 (UniProt Q16774),-0.329,0.0866,–,–
HMOX2 C127 (UniProt P30519),-0.329,-0.0192,–,–
HOXA11 C82,0.0811,0.000971,–,–
GTF3C1 C431 (UniProt Q12789),0.405,0.341,–,–
HEATR5A C841 (UniProt Q86XA9),0.166,-0.127,–,–
HMMR C719 (UniProt O75330),0.721,0.467,–,–
HNRNPM C676,0.2,0.171,–,–
HMGCS1 C406 (UniProt Q01581),0.468,-0.247,–,–
GTF3C5 C432 (UniProt Q9Y5Q8),-0.0388,0.116,-0.112,0.329
GTF3C1 C1336 (UniProt Q12789),0.227,0.287,–,–

Target,log2 mean competition ratio ([1]; 50 µM),log2 mean competition ratio ([1]; 200 µM),log2 mean competition ratio ([2]; 50 µM),log2 mean competition ratio ([2]; 200 µM)
HEATR1 C1143 (UniProt Q9H583),0.582,-0.0706,0.328,-0.262
GTF3C4 C441 (UniProt Q9UKN8),-0.17,-0.178,–,–
HOPX C68,-0.0959,0.203,–,–
HJURP C663 (UniProt Q8NCD3),-0.194,0.376,–,–
HECTD4 C1912,0.0297,0.0703,-0.284,0.0689
HOXB6 C137,0.45,0.129,–,–
HNRNPU C562 (UniProt Q00839),0.239,-0.101,0.261,0.0378
HAUS5 C12 (UniProt O94927),0.111,-0.0627,–,–
HERC2 C1506 (UniProt O95714),-0.0877,-0.252,–,–
HIBCH C336 (UniProt Q6NVY1),-0.148,0.178,–,–
HAUS4 C272 (UniProt Q9H6D7),-0.238,-0.114,-0.127,0.0581
HECTD4 C1406,0.00303,-0.00854,–,–
HOXA13 C194,-0.0743,-0.238,-0.107,-0.301
HMGCR C708 (UniProt P04035),-0.318,0.191,–,–
GULP1 C101 (UniProt Q9UBP9),0.0605,0.0832,-0.151,0.0253
HMGCS1 C12 (UniProt Q01581),0.579,0.21,–,–
HNRNPM C114,0.175,-0.138,0.414,0.0633
HNRNPU C648 (UniProt Q00839),-0.214,-0.254,–,–
GXYLT1 C414 (UniProt Q4G148),0.0513,-0.338,0.0877,-0.269
GTPBP2 C249 (UniProt Q9BX10),-0.291,0.0956,-0.218,0.127
HMCES C7 (UniProt Q96FZ2),0.465,-0.511,0.103,-0.402
HK1 C628 (UniProt P19367),0.4,0.399,–,–
HAGHL C188 (UniProt Q6PII5),0.152,-0.32,0.129,-0.0286

# Complete entries from above. Order of values: log2 mean competition ratio ([1]; 50 µM)	log2 mean competition ratio ([1]; 200 µM)	log2 mean competition ratio ([2]; 50 µM)	log2 mean competition ratio ([2]; 200 µM)
# HECTD1 C1389 (UniProt Q9ULT8) is listed with 0.0993	-0.312	–	–
# HMGCS1 C406 (UniProt Q01581) is listed with 0.468	-0.247	–	–
# HDLBP C636 is listed with -0.103	0.144	–	–
